Measured values as given in the supplement of paper PMC10849652.
Some of the results follow.

Amino acid sequences for entries named in this document (tags omitted). A change or cut given only in a name is not applied to a line headed by its entry.
UniProt Q9P0N9: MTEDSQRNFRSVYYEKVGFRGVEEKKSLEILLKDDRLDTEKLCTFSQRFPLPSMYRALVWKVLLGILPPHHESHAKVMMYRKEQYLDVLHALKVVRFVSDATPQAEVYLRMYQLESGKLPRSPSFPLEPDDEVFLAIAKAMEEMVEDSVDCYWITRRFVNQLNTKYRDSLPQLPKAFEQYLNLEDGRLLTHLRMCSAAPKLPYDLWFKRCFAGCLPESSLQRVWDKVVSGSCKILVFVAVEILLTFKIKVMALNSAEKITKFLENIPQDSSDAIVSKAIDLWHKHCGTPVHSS
UniProt Q9UHQ7: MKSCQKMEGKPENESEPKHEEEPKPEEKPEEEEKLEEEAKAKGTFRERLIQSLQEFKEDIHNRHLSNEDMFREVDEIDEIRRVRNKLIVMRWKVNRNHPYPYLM
UniProt B5MCY1: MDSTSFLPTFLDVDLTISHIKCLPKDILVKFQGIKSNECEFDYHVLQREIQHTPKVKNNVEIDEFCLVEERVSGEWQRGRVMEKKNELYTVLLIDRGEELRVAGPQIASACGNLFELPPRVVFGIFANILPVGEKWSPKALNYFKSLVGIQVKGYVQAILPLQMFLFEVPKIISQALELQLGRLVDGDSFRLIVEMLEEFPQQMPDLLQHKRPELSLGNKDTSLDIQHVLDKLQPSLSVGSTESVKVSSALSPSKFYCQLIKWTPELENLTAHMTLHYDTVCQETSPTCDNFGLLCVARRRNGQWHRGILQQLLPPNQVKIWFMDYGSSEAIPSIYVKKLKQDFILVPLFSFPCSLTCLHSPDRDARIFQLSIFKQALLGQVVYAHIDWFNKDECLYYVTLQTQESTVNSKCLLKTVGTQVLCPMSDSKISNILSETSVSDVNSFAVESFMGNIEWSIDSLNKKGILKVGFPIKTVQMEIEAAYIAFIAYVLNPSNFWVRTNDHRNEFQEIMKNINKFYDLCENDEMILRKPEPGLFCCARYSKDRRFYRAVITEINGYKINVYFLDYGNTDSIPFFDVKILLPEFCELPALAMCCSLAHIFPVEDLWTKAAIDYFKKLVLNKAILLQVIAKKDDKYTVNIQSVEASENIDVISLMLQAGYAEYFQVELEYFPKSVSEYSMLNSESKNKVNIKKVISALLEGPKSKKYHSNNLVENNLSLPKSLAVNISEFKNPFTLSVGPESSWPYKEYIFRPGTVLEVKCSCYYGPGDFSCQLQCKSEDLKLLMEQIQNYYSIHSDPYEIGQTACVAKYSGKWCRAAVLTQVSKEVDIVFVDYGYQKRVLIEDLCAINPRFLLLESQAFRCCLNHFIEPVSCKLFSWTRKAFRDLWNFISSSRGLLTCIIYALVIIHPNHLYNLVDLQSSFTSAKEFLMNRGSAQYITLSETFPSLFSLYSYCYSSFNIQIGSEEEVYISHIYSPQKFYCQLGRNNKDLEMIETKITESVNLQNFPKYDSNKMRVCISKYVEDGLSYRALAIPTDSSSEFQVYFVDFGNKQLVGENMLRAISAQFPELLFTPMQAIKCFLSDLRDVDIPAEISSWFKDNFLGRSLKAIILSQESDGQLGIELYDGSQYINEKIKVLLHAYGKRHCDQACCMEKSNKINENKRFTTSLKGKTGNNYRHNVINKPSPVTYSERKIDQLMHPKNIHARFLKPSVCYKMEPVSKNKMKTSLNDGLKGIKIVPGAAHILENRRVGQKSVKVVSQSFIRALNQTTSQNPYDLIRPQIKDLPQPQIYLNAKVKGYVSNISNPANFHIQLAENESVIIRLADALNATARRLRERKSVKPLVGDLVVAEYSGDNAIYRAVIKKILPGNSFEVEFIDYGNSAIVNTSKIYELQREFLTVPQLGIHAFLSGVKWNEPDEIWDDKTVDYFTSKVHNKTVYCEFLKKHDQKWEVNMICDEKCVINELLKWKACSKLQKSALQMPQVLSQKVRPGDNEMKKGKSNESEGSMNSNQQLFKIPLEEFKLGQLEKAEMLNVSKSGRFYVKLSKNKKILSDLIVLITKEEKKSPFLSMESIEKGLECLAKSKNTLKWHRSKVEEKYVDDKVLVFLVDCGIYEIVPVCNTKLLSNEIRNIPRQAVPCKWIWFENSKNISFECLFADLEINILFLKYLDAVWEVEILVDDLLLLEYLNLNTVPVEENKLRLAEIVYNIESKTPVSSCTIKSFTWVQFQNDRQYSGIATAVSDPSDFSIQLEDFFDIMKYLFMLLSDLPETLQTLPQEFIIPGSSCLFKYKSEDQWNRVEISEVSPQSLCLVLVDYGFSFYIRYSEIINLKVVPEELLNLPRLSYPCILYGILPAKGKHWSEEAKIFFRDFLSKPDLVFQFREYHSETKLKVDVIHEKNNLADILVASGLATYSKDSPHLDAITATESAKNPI
UniProt Q9NUW8, whole entry, looked up: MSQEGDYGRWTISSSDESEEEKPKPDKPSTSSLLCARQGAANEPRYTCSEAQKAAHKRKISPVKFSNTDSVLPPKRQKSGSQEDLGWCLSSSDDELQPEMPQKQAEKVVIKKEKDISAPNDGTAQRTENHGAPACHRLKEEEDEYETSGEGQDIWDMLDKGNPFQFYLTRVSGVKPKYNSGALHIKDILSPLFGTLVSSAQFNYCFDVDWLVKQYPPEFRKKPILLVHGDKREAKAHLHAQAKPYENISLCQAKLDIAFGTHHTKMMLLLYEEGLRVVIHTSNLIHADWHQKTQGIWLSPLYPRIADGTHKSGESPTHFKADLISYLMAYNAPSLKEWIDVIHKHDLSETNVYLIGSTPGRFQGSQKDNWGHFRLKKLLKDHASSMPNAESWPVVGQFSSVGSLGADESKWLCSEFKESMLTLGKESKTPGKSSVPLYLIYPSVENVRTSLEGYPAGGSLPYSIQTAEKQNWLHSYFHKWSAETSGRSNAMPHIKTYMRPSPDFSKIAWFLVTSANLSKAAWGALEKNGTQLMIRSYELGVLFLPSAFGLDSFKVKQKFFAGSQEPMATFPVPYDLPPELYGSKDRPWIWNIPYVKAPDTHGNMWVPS
UniProt Q9HA65: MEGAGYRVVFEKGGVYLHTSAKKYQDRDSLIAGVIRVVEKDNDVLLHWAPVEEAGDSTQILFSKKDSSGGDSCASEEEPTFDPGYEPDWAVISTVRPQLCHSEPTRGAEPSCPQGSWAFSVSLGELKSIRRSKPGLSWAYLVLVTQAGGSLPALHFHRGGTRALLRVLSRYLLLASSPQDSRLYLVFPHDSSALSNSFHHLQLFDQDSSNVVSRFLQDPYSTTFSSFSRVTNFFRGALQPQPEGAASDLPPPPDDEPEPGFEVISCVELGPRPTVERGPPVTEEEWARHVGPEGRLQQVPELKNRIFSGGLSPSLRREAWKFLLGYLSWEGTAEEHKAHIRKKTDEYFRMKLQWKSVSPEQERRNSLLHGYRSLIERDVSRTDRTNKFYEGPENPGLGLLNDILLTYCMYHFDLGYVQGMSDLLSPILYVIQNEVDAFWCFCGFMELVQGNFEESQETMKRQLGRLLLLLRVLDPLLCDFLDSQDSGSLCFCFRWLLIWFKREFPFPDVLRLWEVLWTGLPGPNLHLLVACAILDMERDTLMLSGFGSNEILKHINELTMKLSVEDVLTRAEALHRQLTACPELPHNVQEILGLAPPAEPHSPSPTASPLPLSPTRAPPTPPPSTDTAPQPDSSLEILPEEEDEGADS
UniProt Q14188: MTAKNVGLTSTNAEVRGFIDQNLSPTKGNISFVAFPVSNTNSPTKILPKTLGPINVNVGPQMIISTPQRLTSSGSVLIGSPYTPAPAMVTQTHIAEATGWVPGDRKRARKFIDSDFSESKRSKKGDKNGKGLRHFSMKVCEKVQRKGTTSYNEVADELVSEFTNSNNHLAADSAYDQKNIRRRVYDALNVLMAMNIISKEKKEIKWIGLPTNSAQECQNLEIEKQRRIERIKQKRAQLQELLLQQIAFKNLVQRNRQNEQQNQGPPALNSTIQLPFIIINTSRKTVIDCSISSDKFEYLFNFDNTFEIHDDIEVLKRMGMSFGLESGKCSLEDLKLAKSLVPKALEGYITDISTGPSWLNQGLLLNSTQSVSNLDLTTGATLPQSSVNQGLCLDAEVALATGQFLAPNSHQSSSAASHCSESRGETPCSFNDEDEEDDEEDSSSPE
UniProt Q7L2K0: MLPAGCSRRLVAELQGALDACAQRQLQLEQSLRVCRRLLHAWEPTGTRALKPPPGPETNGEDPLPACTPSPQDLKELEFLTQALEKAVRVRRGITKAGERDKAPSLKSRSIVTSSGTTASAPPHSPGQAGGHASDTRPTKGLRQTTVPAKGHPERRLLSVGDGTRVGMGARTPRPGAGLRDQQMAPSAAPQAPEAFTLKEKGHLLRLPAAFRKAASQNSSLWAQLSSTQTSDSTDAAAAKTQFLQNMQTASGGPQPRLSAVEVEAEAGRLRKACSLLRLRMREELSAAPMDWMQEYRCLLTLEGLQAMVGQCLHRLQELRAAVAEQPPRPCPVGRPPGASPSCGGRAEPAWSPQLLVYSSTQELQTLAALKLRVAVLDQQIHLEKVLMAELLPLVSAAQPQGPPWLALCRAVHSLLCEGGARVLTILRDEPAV
UniProt Q8IYN2: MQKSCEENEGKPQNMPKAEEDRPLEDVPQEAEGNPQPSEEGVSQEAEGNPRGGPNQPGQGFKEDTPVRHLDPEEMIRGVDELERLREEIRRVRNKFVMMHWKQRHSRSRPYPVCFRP

Assays:
Experiment in all cases: log2 fold change, soluble protein after heating vs DMSO (PISA); higher = thermal stabilisation; K562 cells, 10 uM, 30 min; active = over 0.2 and 3.5 SD of the protein, either way, in both replicates (recomputed)
filanesib = compound: CON(C)C(=O)N1N=C(c2cc(F)ccc2F)S[C@@]1(CCCN)c1ccccc1 [filanesib]
Summary of the method: (§1)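 Quantification of soluble protein used TMTpro 16plex LC-MS/MS, with channel sums equalised. Samples were the supernatant after 21,000xg for 90 min of pooled aliquots from K562 cells (2×10^6 cells/mL) treated with 10 μM compound for 30 min, heated for 3 min over 48°C-58°C, and extracted in PBS with 0.5% NP-40 at 4°C. Values, from duplicates, describe thermal stability against control samples on a log2 fold-change scale.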

pictilisib = compound: CS(=O)(=O)N1CCN(Cc2cc3nc(-c4cccc5[nH]ncc45)nc(N4CCOCC4)c3s2)CC1 [pictilisib]
Summary of the method: as §1

[1] = compound: CS(=O)(=O)c1ccc(-c2cnc(N)c(C(=O)Nc3ccccc3)n2)cc1
Summary of the method: as §1

gandotinib = compound: Cc1cc(Nc2cc(CN3CCOCC3)c3nc(C)c(Cc4ccc(Cl)cc4F)n3n2)n[nH]1 [gandotinib]
Summary of the method: as §1

idasanutlin = compound: COc1cc(C(=O)O)ccc1NC(=O)[C@@H]1N[C@@H](CC(C)(C)C)[C@](C#N)(c2ccc(Cl)cc2F)[C@H]1c1cccc(Cl)c1F [idasanutlin]
Summary of the method: as §1

alisertib = compound: COc1cc(Nc2ncc3c(n2)-c2ccc(Cl)cc2C(c2c(F)cccc2OC)=NC3)ccc1C(=O)O [alisertib]
Summary of the method: as §1

[2] = compound: COc1cc2nc(-c3cc(F)ccc3O)nc(N[C@@H]3CNC[C@H]3C(C)(C)O)c2cc1OC
Summary of the method: as §1

[3] = compound: COc1cccc2cc(-c3nc([C@H]4CC[C@H](C(=O)O)CC4)n4ncnc(N)c34)[nH]c12
Summary of the method: as §1

lapatinib = compound: CS(=O)(=O)CCNCc1ccc(-c2ccc3ncnc(Nc4ccc(OCc5cccc(F)c5)c(Cl)c4)c3c2)o1 [lapatinib]
Summary of the method: as §1

[4] = compound: C[C@@H]1COCCN1C2=NC(=NC(=C2)C3(CC3)S(=O)(=O)C)C4=C5C=CNC5=CC=C4
Summary of the method: as §1

tozasertib = compound: Cc1cc(Nc2cc(N3CCN(C)CC3)nc(Sc3ccc(NC(=O)C4CC4)cc3)n2)n[nH]1 [tozasertib]
Summary of the method: as §1

ispinesib = compound: Cc1ccc(C(=O)N(CCCN)[C@@H](c2nc3cc(Cl)ccc3c(=O)n2Cc2ccccc2)C(C)C)cc1 [ispinesib]
Summary of the method: as §1

[5] = compound: COC1=CC=C(C=C1)CN2C=CC3=C2C=C(C=C3)C(=O)NO
Summary of the method: as §1

zotarolimus = compound: CO[C@H]1C[C@@H]2CC[C@@H](C)[C@@](O)(O2)C(=O)C(=O)N2CCCC[C@H]2C(=O)O[C@H]([C@H](C)C[C@@H]2CC[C@H](n3cnnn3)[C@H](OC)C2)CC(=O)[C@H](C)/C=C(\C)[C@@H](O)[C@@H](OC)C(=O)[C@H](C)C[C@H](C)/C=C/C=C/C=C/1C [zotarolimus]
Summary of the method: as §1

crizotinib = compound: C[C@@H](Oc1cc(-c2cnn(C3CCNCC3)c2)cnc1N)c1c(Cl)ccc(F)c1Cl [crizotinib]
Summary of the method: as §1

[6] = compound: C[C@H](C1=CC=C(C=C1)C(=O)NC2=C3C=CNC3=NC=C2)N
Summary of the method: as §1

duvelisib = compound: C[C@H](Nc1ncnc2nc[nH]c12)c1cc2cccc(Cl)c2c(=O)n1-c1ccccc1 [duvelisib]
Summary of the method: as §1

[7] = compound: Cc1cc(SCc2sc(-c3ccc(C(F)(F)F)cc3)nc2C)ccc1OCC(=O)O
Summary of the method: as §1

doramapimod = compound: Cc1ccc(-n2nc(C(C)(C)C)cc2NC(=O)Nc2ccc(OCCN3CCOCC3)c3ccccc23)cc1 [doramapimod]
Summary of the method: as §1

gefitinib = compound: COc1cc2ncnc(Nc3ccc(F)c(Cl)c3)c2cc1OCCCN1CCOCC1 [gefitinib]
Summary of the method: as §1

Measured: log2 fold change

TEX10 (UniProt Q9NXF1)
inactive: filanesib 0.386 | pictilisib -0.194 | [1] -0.135 | gandotinib 0.051

TIGAR (UniProt Q9NQ88)
inactive: pictilisib 0.062 | gandotinib 0.202

TBC1D14 (UniProt Q9P2M4)
inactive: filanesib 0.081 | idasanutlin 0.049 | alisertib -0.046 | [2] -0.224 | [3] -0.1 | lapatinib 0.004 | pictilisib 0.125 | [1] -0.52 | [4] 0.141 | gandotinib -0.055 | tozasertib -0.182 | ispinesib 0.122

TBC1D7 (UniProt Q9P0N9)
inactive: filanesib 0.182 | [2] 0.244 | lapatinib -0.157 | [1] 0.016 | [4] -0.182

TCEAL9 (UniProt Q9UHQ7)
inactive: filanesib 0.15 | [1] -0.181 | [4] -0.458

TENM4 (UniProt Q6N022)
inactive: [5] -0.227 | zotarolimus -0.008 | [2] 0.131 | lapatinib -0.014 | pictilisib 0.15 | crizotinib 0.105 | [4] 0.044 | [6] 0.101 | duvelisib 0.07 | gandotinib 0.21 | [7] -0.024 | doramapimod 0

TBX1 isoform 3 (UniProt O43435)
inactive: [5] -0.314 | [2] 0.386 | gefitinib 0.042 | lapatinib -0.09 | crizotinib 0.341 | doramapimod -0.012

TGDS (UniProt O95455)
inactive: filanesib 0.09 | zotarolimus 0.093 | idasanutlin -0.238 | alisertib -0.047 | gefitinib 0.009 | [3] 0.133 | pictilisib 0.308 | [1] -0.008 | [6] -0.053 | duvelisib 0.099 | gandotinib -0.155 | tozasertib -0.26 | [7] 0.079

TFIP11 (UniProt Q9UBB9)
inactive: zotarolimus -0.113 | [6] 0.126

TCAF2 (UniProt A6NFQ2)
inactive: [5] -0.005 | zotarolimus 0.005 | gefitinib 0.054 | crizotinib -0.041 | [4] -0.251 | [6] 0.288 | doramapimod 0.284 | ispinesib -0.425

TC2N (UniProt Q8N9U0)
inactive: idasanutlin -0.003 | alisertib 0.012 | gefitinib -0.066 | [3] 0.127 | [7] -0.072 | ispinesib -0.071

TDRD15 (UniProt B5MCY1)
inactive: filanesib 0.037 | zotarolimus -0.277 | alisertib 0.088 | [3] -0.479 | pictilisib 0.387 | [1] 0.061 | [6] 0.318 | duvelisib 0.209 | gandotinib -0.008 | tozasertib -0.188 | [7] -0.322 | ispinesib -0.11

THAP12 (UniProt O43422)
inactive: [5] 0.125 | zotarolimus 0.151 | gefitinib 0.191 | pictilisib 0.061 | crizotinib 0.034 | [6] 0.345 | gandotinib -0.602 | doramapimod 0.172 | ispinesib -0.003

TLCD3A (UniProt Q8TBR7)
inactive: filanesib -0.079 | idasanutlin -0.101 | [2] -0.064 | lapatinib 0.012 | pictilisib 0.179 | [1] -0.004 | duvelisib -0.019 | gandotinib -0.125 | tozasertib -0.014 | [7] 0.185

TCF3 isoform 2 (UniProt P15923)
inactive: [5] -0.096 | zotarolimus -0.044 | idasanutlin -0.066 | pictilisib 0.077 | crizotinib 0.156 | [6] -0.009 | gandotinib -0.211 | tozasertib 0.007 | doramapimod 0.192 | ispinesib 0.025

TDP1 (UniProt Q9NUW8)
inactive: zotarolimus -0.015 | [6] 0.145

TK1 (UniProt K7ERV3)
inactive: filanesib 0.005 | zotarolimus -0.034 | idasanutlin -0.075 | alisertib 0.121 | [2] -0.107 | gefitinib 0.026 | [3] 0 | lapatinib -0.107 | pictilisib 0.102 | [1] 0 | [4] 0.021 | [6] 0.182 | gandotinib -0.029 | [7] -0.041 | ispinesib 0.005

TBC1D17 (UniProt Q9HA65)
inactive: filanesib 0.048 | zotarolimus 0.021 | idasanutlin -0.08 | alisertib 0.067 | gefitinib 0.105 | [3] 0.087 | pictilisib -0.047 | [1] 0.096 | [6] 0.067 | duvelisib -0.004 | gandotinib -0.108 | tozasertib -0.061 | [7] 0.077 | ispinesib 0.037

TEPSIN (UniProt Q96N21)
inactive: [5] 0.172 | crizotinib -0.223 | doramapimod 0.241

8 successive records from above, quoted:
TEX10 (UniProt Q9NXF1)
inactive: filanesib 0.386 | pictilisib -0.194 | [1] -0.135 | gandotinib 0.051

TIGAR (UniProt Q9NQ88)
inactive: pictilisib 0.062 | gandotinib 0.202

TBC1D14 (UniProt Q9P2M4)
inactive: filanesib 0.081 | idasanutlin 0.049 | alisertib -0.046 | [2] -0.224 | [3] -0.1 | lapatinib 0.004 | pictilisib 0.125 | [1] -0.52 | [4] 0.141 | gandotinib -0.055 | tozasertib -0.182 | ispinesib 0.122

TBC1D7 (UniProt Q9P0N9)
inactive: filanesib 0.182 | [2] 0.244 | lapatinib -0.157 | [1] 0.016 | [4] -0.182

TCEAL9 (UniProt Q9UHQ7)
inactive: filanesib 0.15 | [1] -0.181 | [4] -0.458

TENM4 (UniProt Q6N022)
inactive: [5] -0.227 | zotarolimus -0.008 | [2] 0.131 | lapatinib -0.014 | pictilisib 0.15 | crizotinib 0.105 | [4] 0.044 | [6] 0.101 | duvelisib 0.07 | gandotinib 0.21 | [7] -0.024 | doramapimod 0

TBX1 isoform 3 (UniProt O43435)
inactive: [5] -0.314 | [2] 0.386 | gefitinib 0.042 | lapatinib -0.09 | crizotinib 0.341 | doramapimod -0.012

TGDS (UniProt O95455)
inactive: filanesib 0.09 | zotarolimus 0.093 | idasanutlin -0.238 | alisertib -0.047 | gefitinib 0.009 | [3] 0.133 | pictilisib 0.308 | [1] -0.008 | [6] -0.053 | duvelisib 0.099 | gandotinib -0.155 | tozasertib -0.26 | [7] 0.079

More results

TIMM10B (UniProt Q9Y5J6)
inactive: filanesib -0.068 | zotarolimus 0.023 | idasanutlin 0.009 | alisertib -0.205 | [2] 0.048 | gefitinib 0.022 | [3] 0.143 | lapatinib -0.248 | pictilisib -0.126 | [1] 0.107 | [4] 0.129 | [6] 0.031 | gandotinib 0.087 | [7] -0.161 | ispinesib 0.077

TDRD3 isoform 3 (UniProt Q9H7E2)
inactive: alisertib 0.051 | [2] -0.022 | [3] -0.046 | lapatinib 0.1 | [4] 0.006

TCF20 (UniProt Q9UGU0)
inactive: zotarolimus -0.067 | pictilisib 0.336 | [4] -0.172 | [6] 0.411 | gandotinib 0.311 | ispinesib -0.471

TGM2 (UniProt A2A299)
inactive: zotarolimus -0.098 | idasanutlin 0.019 | alisertib 0.202 | [2] 0.098 | [3] -0.312 | lapatinib -0.214 | [6] 0.168 | duvelisib 0.15 | tozasertib -0.088 | [7] 0.001 | ispinesib -0.11

TBCK (UniProt Q8TEA7)
inactive: [5] -0.123 | idasanutlin -0.251 | [2] 0.108 | gefitinib 0.121 | lapatinib -0.171 | pictilisib -0.083 | crizotinib -0.008 | duvelisib -0.083 | gandotinib 0.143 | tozasertib -0.05 | [7] 0.088 | doramapimod -0.078

TBC1D2 (UniProt Q9BYX2)
inactive: idasanutlin 0.016 | alisertib -0.053 | [3] -0.211 | pictilisib -0.097 | [4] 0.064 | gandotinib -0.04

TBC1D9 (UniProt Q6ZT07)
inactive: duvelisib -0.082 | [7] 0.603

TCOF1 isoform 3 (UniProt Q13428)
inactive: filanesib -0.152 | pictilisib 0.188 | [1] -0.103 | [4] 0.542 | gandotinib -0.166 | ispinesib -0.185

TFDP2 (UniProt Q14188)
inactive: filanesib -0.043 | zotarolimus 0.158 | alisertib -0.004 | [3] 0.188 | [1] -0.067 | [4] -0.054 | [6] 0.087 | tozasertib -0.022

THEMIS2 (UniProt Q5TEJ8)
inactive: [5] -0.409 | [2] 0.1 | gefitinib -0.125 | lapatinib -0.002 | pictilisib 0.147 | crizotinib -0.091 | [4] -0.147 | duvelisib 0.046 | gandotinib -0.063 | tozasertib -0.116 | [7] 0.091 | doramapimod 0.031 | ispinesib -0.029

TCP11L1 (UniProt Q9NUJ3)
inactive: idasanutlin -0.21 | alisertib -0.013 | [2] 0.05 | gefitinib -0.01 | [3] 0.044 | lapatinib -0.046 | duvelisib 0.096 | [7] -0.202

TEDC2 (UniProt Q7L2K0)
inactive: idasanutlin 0.062 | duvelisib -0.03 | tozasertib -0.03 | [7] -0.141

TET2 (UniProt Q6N021)
inactive: [5] -0.009 | alisertib 0.21 | gefitinib 0.161 | [3] 0.12 | crizotinib 0.062 | tozasertib -0.05 | doramapimod -0.03

TCEAL4 isoform 2 (UniProt Q96EI5)
inactive: [5] -0.065 | [2] -0.168 | lapatinib 0.058 | pictilisib -0.168 | crizotinib -0.082 | [4] 0.011 | duvelisib 0.057 | gandotinib 0 | tozasertib -0.045 | [7] -0.004 | doramapimod 0.035 | ispinesib 0.145

TFAP4 (UniProt Q01664)
inactive: [5] 0.015 | zotarolimus 0.037 | [2] 0.048 | gefitinib 0.01 | lapatinib -0.054 | pictilisib 0.008 | crizotinib -0.056 | [6] 0.329 | gandotinib -0.006 | tozasertib 0.006 | doramapimod -0.095 | ispinesib -0.111

TCEAL8 (UniProt Q8IYN2)
inactive: [5] -0.057 | alisertib -0.143 | gefitinib -0.015 | [3] 0.004 | pictilisib 0.147 | crizotinib 0.075 | gandotinib -0.222 | doramapimod -0.104

THTPA (UniProt Q9BU02)
inactive: zotarolimus -0.028 | idasanutlin 0.107 | alisertib -0.19 | [2] 0.117 | [3] 0.087 | lapatinib 0.015 | [6] -0.004 | duvelisib 0.09 | tozasertib 0.048 | [7] -0.105 | ispinesib -0.01

TBC1D25 (UniProt Q3MII6)
inactive: zotarolimus -0.116 | [6] -0.115

TESMIN (UniProt Q9Y4I5)
inactive: gefitinib 0.056

TCF4 isoform 3 (UniProt P15884)
inactive: zotarolimus 0.207 | [2] -0.011 | lapatinib -0.066 | pictilisib 0.024 | [6] 0.198 | duvelisib -0.012 | gandotinib -0.016 | tozasertib 0.086 | [7] -0.044

TLE3 (UniProt Q04726)
inactive: zotarolimus -0.211 | [6] -0.042
